According to article PMC10579421:
Results are given in words; binding and its absence hold for the method and conditions named. Binding seen in cells or lysates may run through a third protein. Some entries that bind do so weakly or less than the wild type.

Chains of the proteins cited; added tags and fusions are not shown.
UniProt O15379: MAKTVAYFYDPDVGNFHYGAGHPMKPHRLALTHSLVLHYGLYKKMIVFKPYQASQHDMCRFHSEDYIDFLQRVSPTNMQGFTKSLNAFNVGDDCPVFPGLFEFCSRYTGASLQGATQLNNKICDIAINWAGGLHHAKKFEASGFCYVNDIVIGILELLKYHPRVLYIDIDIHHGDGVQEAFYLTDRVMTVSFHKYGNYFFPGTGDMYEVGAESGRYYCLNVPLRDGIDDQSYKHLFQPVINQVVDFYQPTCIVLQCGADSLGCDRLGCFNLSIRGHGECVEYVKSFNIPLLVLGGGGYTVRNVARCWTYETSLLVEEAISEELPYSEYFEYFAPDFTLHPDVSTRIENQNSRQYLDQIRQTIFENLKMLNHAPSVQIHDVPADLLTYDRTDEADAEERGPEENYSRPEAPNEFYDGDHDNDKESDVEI

Molecular target: T1, JunB (human (endogenous in THP-1)) (UniProt P17275)
T1 sequence: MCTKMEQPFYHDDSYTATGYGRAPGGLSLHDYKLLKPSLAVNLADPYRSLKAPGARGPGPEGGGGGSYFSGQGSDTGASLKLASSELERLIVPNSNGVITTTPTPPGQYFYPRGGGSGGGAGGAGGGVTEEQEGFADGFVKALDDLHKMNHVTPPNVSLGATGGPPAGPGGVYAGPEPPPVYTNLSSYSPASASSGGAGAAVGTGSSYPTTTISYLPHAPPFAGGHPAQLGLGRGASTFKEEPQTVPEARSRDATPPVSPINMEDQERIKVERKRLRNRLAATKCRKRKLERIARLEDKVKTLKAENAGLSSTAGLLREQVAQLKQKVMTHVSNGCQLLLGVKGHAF
Test: co-IP

- binding: binds
Substance: HDAC3 (from UniProt O15379 1-428) (enzyme)
